# Measurements reported in PubChem BioAssay AID1259308 (NCATS, 2017)
# Assay: 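Genes whose loss raises luciferase production in HEK293 cells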 (primary screen)
# Cell system: human HEK293 embryonic kidney cells stably expressing firefly luciferase (HEK-CMV-Luc2-Hygro)
# Reagents: single siRNA against human genes, 0.8 pmol siRNA per well
# Duration: 72 h
# Measured: 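Luciferase light (ONE-Glo) measured on one replicate plate set and viability (CellTiter-Glo) on the other, scaled to a negative control siRNA, with robust z-scores and luciferase per cell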
# Scale: total luciferase, z-score and total luciferase, % of control: higher = more reporter protein produced; luciferase per cell, z-score: higher = more reporter output per viable cell; viable cells, % of control: higher = more viable cells
# Active means: 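An siRNA counts as active if its total luciferase robust z-score exceeds 3; genes with two or more such siRNAs out of three were retested with fresh siRNAs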
# Meaning of the calls: active = raised luciferase; inactive = no rise
# In all, the deposit lists about 59,000 reagents; this is an unselected part. Over the whole deposit, about 1,510 (2.6%) got an active call. 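Calls use total luciferase alone and ignore viability, so some active siRNAs may act by altering cell number.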 Entries without a mark were called inactive. Reagents against one gene are numbered here.
target,siRNA no.,"total luciferase, z-score","total luciferase, % of control","luciferase per cell, z-score","viable cells, % of control"
TMEM240 (GeneID 339453),1,1.28,107,1.74,75.9
TMEM240 (GeneID 339453),2,-1.72,47.7,-1.46,78.3
TMEM240 (GeneID 339453),3,-0.897,64.1,-0.702,86.1
TOR1AIP1 (GeneID 26092),1,-0.403,73.9,-0.119,85.2
TOR1AIP1 (GeneID 26092),2,-0.343,75.1,-0.504,95.8
TOR1AIP1 (GeneID 26092),3,-0.647,69,-0.692,92.6
DIABLO (GeneID 56616),1,-0.00454,81.8,-0.623,108
DIABLO (GeneID 56616),2,-0.186,78.2,-0.542,101
DIABLO (GeneID 56616),3,0.575,93.3,0.187,99.3
NSUN2 (GeneID 54888),1,-0.219,77.5,-0.378,95.7
NSUN2 (GeneID 54888),2,-0.23,77.3,-0.142,89.7
NSUN2 (GeneID 54888),3,0.337,88.6,0.085,96.8
MAS1L (GeneID 116511),1,-0.52,71.5,-0.818,99.2
MAS1L (GeneID 116511),2,-0.568,70.6,-0.857,98.8
MAS1L (GeneID 116511),3,1.87,119,0.866,106
OSMR (GeneID 9180),1,1.2,106,0.311,109
OSMR (GeneID 9180),2,-0.338,75.2,0.00544,83.9
OSMR (GeneID 9180),3,-0.755,66.9,0.152,71.8
SCUBE2 (GeneID 57758),1,-0.201,77.9,0.0912,85
SCUBE2 (GeneID 57758),2,-1.23,57.4,-1.31,90.7
SCUBE2 (GeneID 57758),3,0.0848,83.6,0.766,76.3
IREB2 (GeneID 3658),1,-0.0432,81,0.0827,88.6
IREB2 (GeneID 3658),2,-1.09,60.1,-0.942,86.1
IREB2 (GeneID 3658),3,-0.0227,81.4,0.329,83.4
CYP2A7 (GeneID 1549),1,-0.294,76,1.61,55.6
CYP2A7 (GeneID 1549),2,0.467,91.2,0.512,89
CYP2A7 (GeneID 1549),3,-1.96,43,-1.62,73.6
IL12A (GeneID 3592),1,-0.333,75.3,-0.924,107
IL12A (GeneID 3592),2,0.201,85.9,-0.228,102
IL12A (GeneID 3592),3,1.66,115,1.28,91.7
ZNF337 (GeneID 26152),1,0.515,92.1,0.311,94.9
ZNF337 (GeneID 26152),2,-0.518,71.6,-1.16,109
ZNF337 (GeneID 26152),3,2.78,137,3.06,68.4

Only “viable cells, % of control”, for 10 of the entries above:
TMEM240 (GeneID 339453) #3: 86.1
TOR1AIP1 (GeneID 26092) #1: 85.2
TOR1AIP1 (GeneID 26092) #2: 95.8
TOR1AIP1 (GeneID 26092) #3: 92.6
DIABLO (GeneID 56616) #1: 108
DIABLO (GeneID 56616) #2: 101
DIABLO (GeneID 56616) #3: 99.3
NSUN2 (GeneID 54888) #1: 95.7
NSUN2 (GeneID 54888) #2: 89.7
NSUN2 (GeneID 54888) #3: 96.8

The listing continues.
target,siRNA no.,"total luciferase, z-score","total luciferase, % of control","luciferase per cell, z-score","viable cells, % of control"
STARD3 (GeneID 10948),1,0.327,88.4,-0.225,105
STARD3 (GeneID 10948),2,-0.541,71.1,0.0788,77.9
STARD3 (GeneID 10948),3,0.334,88.5,0.956,76.9
SH3TC2 (GeneID 79628),1,4.21 (active),166,3.28,78.1
SH3TC2 (GeneID 79628),2,0.624,94.3,-0.227,112
SH3TC2 (GeneID 79628),3,0.444,90.7,-0.188,107
SLC6A19 (GeneID 340024),1,0.851,98.8,0.935,86.3
SLC6A19 (GeneID 340024),2,-0.205,77.8,0.402,78.2
SLC6A19 (GeneID 340024),3,-0.485,72.2,1.08,60.8
MROH1 (GeneID 727957),1,-0.139,79.1,0.961,68.6
MROH1 (GeneID 727957),2,-1.78,46.6,-1.6,79.4
MROH1 (GeneID 727957),3,-0.826,65.4,-1.17,99.6
CIAPIN1 (GeneID 57019),1,2.99,141,2.11,90.6
CIAPIN1 (GeneID 57019),2,0.677,95.4,0.98,82.3
CIAPIN1 (GeneID 57019),3,1.48,111,1.08,93.5
MAP1B (GeneID 4131),1,0.663,95.1,0.257,99.3
MAP1B (GeneID 4131),2,-0.305,75.8,-0.849,106
MAP1B (GeneID 4131),3,-0.134,79.2,-0.361,97.4
PPIL1 (GeneID 51645),1,1.33,108,0.581,104
PPIL1 (GeneID 51645),2,0.826,98.3,0.7,91.4
PPIL1 (GeneID 51645),3,0.284,87.5,1.79,61.1
KRTAP1-5 (GeneID 83895),1,-1.09,60.2,-0.854,84.2
KRTAP1-5 (GeneID 83895),2,-0.5,71.9,-0.542,92.7
KRTAP1-5 (GeneID 83895),3,0.391,89.7,0.574,86.1
